At least one compound was matched to its structure with a doubt left.
Experiments:
CREB [1] = assay: Western blot of CREB activity (Ser133 phosphorylation) in primary neurons after neurotransmitter ligands, forskolin or H-89; assay type: cell-based, rat; settings: about 10 μM, forskolin 30 minutes, serotonin 15 minutes
Source text: With the primary neuronal cultures, we tested the ability of the constructed Boolean network to correctly predict the output activity, following an increase in the concentration of each input molecules. According to the logic equations of the CREB network (1), which provide the on/off state of CREB in response to the on/off states of input neurotransmitters (1), serotonin is the only input activates CREB. To verify this prediction experimentally, we treated primary neurons with equal micromolar concentrations (10 μM) of serotonin, glutamate, dopamine, GABA, and adenosine for 15 minutes and measured the activity of CREB by monitoring Ser133 phosphorylation (14). Receptors of these neurotransmitters are expressed in the primary cortical culture and this concentration is used in the literature to activate these receptors (17-22).
We also tried to verify the biological relevance of the stuck-at-1 and stuck-at-0 fault models used in Abdi et al (1). […]
Protein extraction, and immunoblot analysis. […] Protein concentration was measured by Bio-Rad's protein assay and spectrometry at 595° A. Equal amounts of total protein were loaded on 4-12% gradient Bis-Tris gels, separated using the NuPAGE system (Invitrogen) and transferred onto nitrocellulose membrane. The membrane was probed with primary and secondary antibodies and signals were detected by chemiluminescence followed by autoradiography. […]

CREB [2] = assay: Immunofluorescent analysis of CREB phosphorylation (Ser133) in primary cortical culture; assay type: cell-based, rat; settings: triple labeled with phospho-CREB, Map-2, DRAQ-5
Source text: FIG. 6. Immunofluorescent analysis of primary cortical culture following treatment with vehicle, forskolin, serotonin, or serotonin and forskolin. Red represents the phosphorylated CREB (Ser^133) as a measure of CREB activity. Green represents the Map-2 staining as a specific neuronal marker and blue represent DRAQ-5 nuclear staining of all the cells in the primary culture (both neuronal and glial cells). Images were captured with the same confocal parameters for the four different treatment conditions.
We also tried to verify the biological relevance of the stuck-at-1 and stuck-at-0 fault models used in Abdi et al (1). We tested the effect of serotonin on the activity of CREB when PKA, a highly vulnerable molecule in this network, is either activated (stuck-at-1) or inhibited (stuck-at-0), by forskolin or H-89, respectively. When PKA is stuck-at-1 or 0, the model predicts that serotonin should no longer activate CREB (1). To verify this experimentally, we treated primary neurons with serotonin in the presence or absence of either forskolin or H-89 (FIG. 1E). […] Thus, when the highly vulnerable molecule PKA is stuck-at-1, the network output is not correctly regulated by the input. […]

SMILES: C=C[C@@]1(C)CC(=O)[C@]2(O)[C@@]3(C)[C@@H](O)CCC(C)(C)[C@@H]3[C@H](O)[C@H](OC(C)=O)[C@@]2(C)O1 [forskolin]
- activity of CREB, individual treatments (CREB [1]): activate CREB
- activity of CREB (phospho-Ser133 staining) in neuronal and non-neuronal cells (CREB [2]): increased the activity of CREB in both neuronal and non-neuronal (glial) cells

Reference: US20100099741A1, “Molecular Targets for Treatment of Learning and Memory Dysfunction” (priority 2008, published 2010)
